# Results from the supplement of paper PMC10849652.
# Chains of the proteins cited; added tags and fusions are not shown. Lines headed by an entry give the natural chain unless they say otherwise; changes in a name come on top.
# UniProt Q9NPA8: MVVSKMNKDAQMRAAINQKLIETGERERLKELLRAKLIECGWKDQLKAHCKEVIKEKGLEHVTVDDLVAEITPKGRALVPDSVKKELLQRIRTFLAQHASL
# UniProt Q9BQ52: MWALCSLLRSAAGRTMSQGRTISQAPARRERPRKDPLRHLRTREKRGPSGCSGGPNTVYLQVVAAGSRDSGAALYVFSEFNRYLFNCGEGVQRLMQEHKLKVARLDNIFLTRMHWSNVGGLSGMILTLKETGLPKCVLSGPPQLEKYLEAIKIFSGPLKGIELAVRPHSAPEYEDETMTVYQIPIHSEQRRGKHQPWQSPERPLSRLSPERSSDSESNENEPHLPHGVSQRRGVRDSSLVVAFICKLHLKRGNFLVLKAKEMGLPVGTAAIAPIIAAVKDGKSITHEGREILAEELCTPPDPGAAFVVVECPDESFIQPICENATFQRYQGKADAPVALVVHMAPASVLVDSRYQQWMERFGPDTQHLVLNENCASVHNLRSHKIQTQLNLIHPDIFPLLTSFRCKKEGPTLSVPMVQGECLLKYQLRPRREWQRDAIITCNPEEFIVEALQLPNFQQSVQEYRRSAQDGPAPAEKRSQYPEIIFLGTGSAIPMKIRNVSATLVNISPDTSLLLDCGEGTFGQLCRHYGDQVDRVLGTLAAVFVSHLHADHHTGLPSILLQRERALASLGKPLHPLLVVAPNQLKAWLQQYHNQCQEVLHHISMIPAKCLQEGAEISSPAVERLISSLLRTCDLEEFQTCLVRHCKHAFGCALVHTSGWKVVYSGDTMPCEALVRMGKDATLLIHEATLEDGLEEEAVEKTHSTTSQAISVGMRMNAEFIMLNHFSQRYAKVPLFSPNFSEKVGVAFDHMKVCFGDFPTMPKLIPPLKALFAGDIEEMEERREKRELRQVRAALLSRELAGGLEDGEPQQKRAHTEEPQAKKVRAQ
# UniProt Q9BV81: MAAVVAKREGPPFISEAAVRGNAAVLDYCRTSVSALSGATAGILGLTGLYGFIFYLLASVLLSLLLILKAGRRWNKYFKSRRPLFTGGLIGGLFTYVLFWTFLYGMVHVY
# UniProt O95163: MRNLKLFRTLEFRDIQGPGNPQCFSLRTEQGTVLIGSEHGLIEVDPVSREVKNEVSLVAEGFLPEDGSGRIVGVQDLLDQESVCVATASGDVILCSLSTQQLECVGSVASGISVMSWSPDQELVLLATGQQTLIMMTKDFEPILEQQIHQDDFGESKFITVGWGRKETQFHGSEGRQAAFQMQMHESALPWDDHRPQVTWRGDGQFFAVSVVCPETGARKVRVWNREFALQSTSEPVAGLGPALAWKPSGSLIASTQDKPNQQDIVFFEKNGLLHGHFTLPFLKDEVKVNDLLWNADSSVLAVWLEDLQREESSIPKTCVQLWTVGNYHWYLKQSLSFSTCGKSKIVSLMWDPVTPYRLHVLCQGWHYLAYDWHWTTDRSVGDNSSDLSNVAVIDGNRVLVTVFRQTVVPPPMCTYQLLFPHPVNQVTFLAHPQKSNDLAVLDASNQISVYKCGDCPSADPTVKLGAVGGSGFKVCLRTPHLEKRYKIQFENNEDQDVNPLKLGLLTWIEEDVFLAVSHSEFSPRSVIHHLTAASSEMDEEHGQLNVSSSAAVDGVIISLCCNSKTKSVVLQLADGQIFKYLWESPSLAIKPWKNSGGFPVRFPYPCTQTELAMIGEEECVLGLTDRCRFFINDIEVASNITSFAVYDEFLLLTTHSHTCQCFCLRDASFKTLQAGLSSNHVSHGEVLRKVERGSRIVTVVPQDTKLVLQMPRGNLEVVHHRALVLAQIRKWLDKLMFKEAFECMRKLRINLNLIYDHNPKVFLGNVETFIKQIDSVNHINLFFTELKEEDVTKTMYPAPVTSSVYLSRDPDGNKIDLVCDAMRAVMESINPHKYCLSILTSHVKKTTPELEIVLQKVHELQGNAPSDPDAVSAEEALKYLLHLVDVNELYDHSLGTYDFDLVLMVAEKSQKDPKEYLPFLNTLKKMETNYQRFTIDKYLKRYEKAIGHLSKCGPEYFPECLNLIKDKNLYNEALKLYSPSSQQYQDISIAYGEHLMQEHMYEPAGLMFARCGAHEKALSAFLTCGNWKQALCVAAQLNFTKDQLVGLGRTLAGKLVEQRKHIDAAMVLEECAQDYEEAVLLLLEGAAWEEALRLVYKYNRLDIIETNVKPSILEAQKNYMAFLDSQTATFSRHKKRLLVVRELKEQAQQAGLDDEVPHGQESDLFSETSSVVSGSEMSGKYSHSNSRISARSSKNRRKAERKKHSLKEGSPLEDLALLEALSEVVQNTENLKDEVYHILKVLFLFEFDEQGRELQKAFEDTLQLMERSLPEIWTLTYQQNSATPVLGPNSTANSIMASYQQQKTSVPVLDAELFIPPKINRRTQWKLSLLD
# UniProt Q9HC35: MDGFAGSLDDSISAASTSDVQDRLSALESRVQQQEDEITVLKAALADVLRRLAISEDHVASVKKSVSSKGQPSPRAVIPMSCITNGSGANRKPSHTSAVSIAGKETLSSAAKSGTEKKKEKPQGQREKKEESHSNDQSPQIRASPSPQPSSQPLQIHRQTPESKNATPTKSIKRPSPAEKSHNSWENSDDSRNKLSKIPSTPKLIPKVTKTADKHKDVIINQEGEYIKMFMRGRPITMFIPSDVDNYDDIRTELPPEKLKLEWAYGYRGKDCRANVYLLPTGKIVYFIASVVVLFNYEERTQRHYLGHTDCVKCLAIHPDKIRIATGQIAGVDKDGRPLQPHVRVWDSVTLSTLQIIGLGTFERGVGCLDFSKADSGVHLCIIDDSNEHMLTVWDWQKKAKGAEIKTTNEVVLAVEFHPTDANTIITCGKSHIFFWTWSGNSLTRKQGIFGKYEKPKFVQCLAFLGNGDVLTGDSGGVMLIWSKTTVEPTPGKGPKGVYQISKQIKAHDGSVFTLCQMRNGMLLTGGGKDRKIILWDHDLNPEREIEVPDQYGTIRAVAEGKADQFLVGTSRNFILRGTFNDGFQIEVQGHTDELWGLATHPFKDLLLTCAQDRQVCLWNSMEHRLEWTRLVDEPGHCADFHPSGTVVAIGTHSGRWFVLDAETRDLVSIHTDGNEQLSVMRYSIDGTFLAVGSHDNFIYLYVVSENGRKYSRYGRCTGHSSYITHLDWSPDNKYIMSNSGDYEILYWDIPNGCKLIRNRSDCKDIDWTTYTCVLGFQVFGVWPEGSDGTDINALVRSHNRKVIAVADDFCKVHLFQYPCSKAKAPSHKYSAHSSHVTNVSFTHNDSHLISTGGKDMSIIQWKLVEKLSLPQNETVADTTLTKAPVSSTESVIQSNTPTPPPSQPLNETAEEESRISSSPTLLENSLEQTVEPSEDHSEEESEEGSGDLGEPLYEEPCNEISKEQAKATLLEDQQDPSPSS
# UniProt Q14152, whole entry, looked up: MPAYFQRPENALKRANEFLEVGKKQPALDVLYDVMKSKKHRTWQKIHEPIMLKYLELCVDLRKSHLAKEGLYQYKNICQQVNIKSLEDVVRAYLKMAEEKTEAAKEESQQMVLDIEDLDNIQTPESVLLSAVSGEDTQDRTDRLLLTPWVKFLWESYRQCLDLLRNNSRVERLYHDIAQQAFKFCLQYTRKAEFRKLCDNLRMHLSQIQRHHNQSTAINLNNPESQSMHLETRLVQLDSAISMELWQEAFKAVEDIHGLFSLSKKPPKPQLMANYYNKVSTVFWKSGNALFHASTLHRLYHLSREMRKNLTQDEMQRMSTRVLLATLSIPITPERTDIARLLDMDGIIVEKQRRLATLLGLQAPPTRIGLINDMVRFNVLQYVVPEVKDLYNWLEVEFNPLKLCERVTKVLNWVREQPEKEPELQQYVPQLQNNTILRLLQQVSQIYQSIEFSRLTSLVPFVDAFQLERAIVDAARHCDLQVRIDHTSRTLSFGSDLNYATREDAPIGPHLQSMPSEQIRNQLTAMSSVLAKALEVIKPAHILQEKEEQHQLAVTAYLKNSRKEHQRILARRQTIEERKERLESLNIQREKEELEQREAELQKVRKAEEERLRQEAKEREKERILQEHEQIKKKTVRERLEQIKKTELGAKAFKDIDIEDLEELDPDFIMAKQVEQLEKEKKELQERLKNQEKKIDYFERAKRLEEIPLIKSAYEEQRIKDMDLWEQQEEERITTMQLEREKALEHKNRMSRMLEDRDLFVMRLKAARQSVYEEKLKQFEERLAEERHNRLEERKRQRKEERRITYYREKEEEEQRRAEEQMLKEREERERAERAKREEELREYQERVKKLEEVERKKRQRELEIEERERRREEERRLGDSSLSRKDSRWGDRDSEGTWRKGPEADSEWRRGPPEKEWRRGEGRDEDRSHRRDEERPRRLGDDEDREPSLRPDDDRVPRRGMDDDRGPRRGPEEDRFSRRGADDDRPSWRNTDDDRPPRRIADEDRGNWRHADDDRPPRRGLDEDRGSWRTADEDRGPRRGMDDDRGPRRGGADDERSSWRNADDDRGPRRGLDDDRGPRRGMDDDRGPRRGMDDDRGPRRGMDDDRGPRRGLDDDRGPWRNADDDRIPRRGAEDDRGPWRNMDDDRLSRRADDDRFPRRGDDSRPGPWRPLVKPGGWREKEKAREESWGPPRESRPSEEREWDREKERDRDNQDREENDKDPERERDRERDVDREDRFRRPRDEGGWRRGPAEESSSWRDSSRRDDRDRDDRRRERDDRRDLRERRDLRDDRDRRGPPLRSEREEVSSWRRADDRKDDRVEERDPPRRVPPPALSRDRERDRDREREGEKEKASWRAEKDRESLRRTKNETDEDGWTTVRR
# UniProt P19525: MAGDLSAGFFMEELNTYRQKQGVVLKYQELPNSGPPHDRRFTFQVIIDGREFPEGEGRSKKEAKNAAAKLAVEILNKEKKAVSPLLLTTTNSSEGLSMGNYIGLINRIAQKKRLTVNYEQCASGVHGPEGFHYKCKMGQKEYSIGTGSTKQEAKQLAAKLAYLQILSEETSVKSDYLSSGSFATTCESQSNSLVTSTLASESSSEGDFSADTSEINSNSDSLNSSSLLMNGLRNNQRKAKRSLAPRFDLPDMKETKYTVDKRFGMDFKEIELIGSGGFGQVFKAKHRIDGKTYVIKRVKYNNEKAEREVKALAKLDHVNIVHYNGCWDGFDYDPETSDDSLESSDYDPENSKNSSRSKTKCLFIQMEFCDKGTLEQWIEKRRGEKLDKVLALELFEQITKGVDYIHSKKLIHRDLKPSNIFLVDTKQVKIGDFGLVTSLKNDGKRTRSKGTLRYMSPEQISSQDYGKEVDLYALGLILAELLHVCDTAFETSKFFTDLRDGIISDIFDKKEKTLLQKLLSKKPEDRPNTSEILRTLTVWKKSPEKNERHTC
# UniProt Q9UI10, whole entry, looked up: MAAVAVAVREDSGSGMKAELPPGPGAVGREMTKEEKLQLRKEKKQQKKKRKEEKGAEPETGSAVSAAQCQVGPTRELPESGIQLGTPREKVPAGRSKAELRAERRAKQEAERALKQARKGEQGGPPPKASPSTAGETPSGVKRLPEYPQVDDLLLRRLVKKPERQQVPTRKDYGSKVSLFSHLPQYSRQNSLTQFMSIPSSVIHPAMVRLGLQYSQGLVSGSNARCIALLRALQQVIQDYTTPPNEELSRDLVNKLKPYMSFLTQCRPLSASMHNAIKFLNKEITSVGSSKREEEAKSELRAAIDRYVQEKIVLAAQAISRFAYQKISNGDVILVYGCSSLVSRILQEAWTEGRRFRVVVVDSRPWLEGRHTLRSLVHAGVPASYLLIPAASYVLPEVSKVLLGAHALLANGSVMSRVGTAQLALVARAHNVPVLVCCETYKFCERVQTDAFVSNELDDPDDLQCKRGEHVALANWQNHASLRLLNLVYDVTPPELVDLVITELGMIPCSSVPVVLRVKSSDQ
# UniProt O95834: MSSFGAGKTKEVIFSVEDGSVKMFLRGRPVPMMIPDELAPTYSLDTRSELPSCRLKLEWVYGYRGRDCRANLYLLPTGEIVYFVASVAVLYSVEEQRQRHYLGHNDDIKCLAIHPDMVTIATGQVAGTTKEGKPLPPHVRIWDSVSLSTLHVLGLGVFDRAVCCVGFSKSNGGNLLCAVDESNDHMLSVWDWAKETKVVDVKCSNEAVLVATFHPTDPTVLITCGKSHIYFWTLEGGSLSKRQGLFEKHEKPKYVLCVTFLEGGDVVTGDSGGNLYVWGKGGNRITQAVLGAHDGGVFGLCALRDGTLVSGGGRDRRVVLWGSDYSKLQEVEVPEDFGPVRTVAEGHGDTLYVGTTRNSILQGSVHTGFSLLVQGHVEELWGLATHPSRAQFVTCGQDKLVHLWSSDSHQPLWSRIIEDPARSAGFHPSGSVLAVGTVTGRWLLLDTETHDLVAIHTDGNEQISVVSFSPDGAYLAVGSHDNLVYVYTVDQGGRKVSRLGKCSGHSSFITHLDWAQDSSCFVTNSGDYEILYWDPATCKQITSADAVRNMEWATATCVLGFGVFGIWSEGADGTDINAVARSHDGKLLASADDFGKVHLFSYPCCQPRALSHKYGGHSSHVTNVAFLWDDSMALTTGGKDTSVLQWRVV
# Some of the results follow.
# How the values were obtained:
# Assay in all cases: log2 fold change, soluble protein after heating vs DMSO (PISA); higher = thermal stabilisation; K562 cells, 10 uM, 30 min; active = over 0.2 and 3.5 SD of the protein, either way, in both replicates (recomputed)
# bafetinib = compound: Cc1ccc(NC(=O)c2ccc(CN3CC[C@H](N(C)C)C3)c(C(F)(F)F)c2)cc1Nc1nccc(-c2cncnc2)n1 [bafetinib]
# Procedure, shortened: (§1)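 For each measurement, 10 μM compound was applied for 30 min to K562 cells at 2×10^6 cells/mL. Aliquots were heated for 3 min across 48°C-58°C, pooled, and extracted in PBS with 0.5% NP-40 at 4°C; the supernatant after 21,000xg for 90 min was soluble protein. This was quantified by TMTpro 16plex LC-MS/MS with channel sums equalised, and thermal stability was reported relative to control samples from duplicates, on a log2 fold-change scale.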
# [1] = compound: Cc1cccc(CC(=O)N2CCc3c2ccc(-c2cn(C)c4ncnc(N)c24)c3F)n1
# Procedure, shortened: as §1
# nilotinib = compound: Cc1cn(-c2cc(NC(=O)c3ccc(C)c(Nc4nccc(-c5cccnc5)n4)c3)cc(C(F)(F)F)c2)cn1 [nilotinib]
# Procedure, shortened: as §1
# [2] = compound: Cc1nc(Nc2n[nH]c3c2CN(C(=O)N[C@H](CN(C)C)c2ccccc2)C3(C)C)c2sccc2n1
# Procedure, shortened: as §1
# dasatinib = compound: Cc1nc(Nc2ncc(C(=O)Nc3c(C)cccc3Cl)s2)cc(N2CCN(CCO)CC2)n1 [dasatinib]
# Procedure, shortened: as §1
# [3] = compound: Cc1ncc(-c2ccnc(Nc3ccc(S(C)(=O)=O)cc3)n2)n1C(C)C
# Procedure, shortened: as §1
# [4] = compound: Cn1cc(-c2ccc3c(c2)CCN3C(=O)Cc2cccc(C(F)(F)F)c2)c2c(N)ncnc21
# Procedure, shortened: as §1
# [5] = compound: Cn1cc(-c2ccc3nnc(C(F)(F)c4ccc5ncccc5c4)n3n2)cn1
# Procedure, shortened: as §1
# tipifarnib = compound: Cn1cncc1[C@@](N)(c1ccc(Cl)cc1)c1ccc2c(c1)c(-c1cccc(Cl)c1)cc(=O)n2C [tipifarnib]
# Procedure, shortened: as §1
# mubritinib = compound: FC(F)(F)c1ccc(/C=C/c2nc(COc3ccc(CCCCn4ccnn4)cc3)co2)cc1 [mubritinib]
# Procedure, shortened: as §1
Target,log2 fold change (bafetinib),log2 fold change [1],log2 fold change (nilotinib),log2 fold change [2],log2 fold change (dasatinib),log2 fold change [3],log2 fold change [4],log2 fold change [5],log2 fold change (tipifarnib),log2 fold change (mubritinib)
EMC1 (UniProt Q8N766),inactive: -0.016,inactive: 0.001,inactive: -0.006,inactive: 0.008,inactive: -0.026,inactive: -0.029,inactive: 0.009,inactive: 0.032,inactive: 0.009,inactive: -0.012
EEF1E1 (UniProt O43324),inactive: -0.018,inactive: 0.051,inactive: -0.008,inactive: -0.024,inactive: -0.079,inactive: -0.002,inactive: 0.024,inactive: -0.076,inactive: -0.083,inactive: 0.032
ENY2 (UniProt Q9NPA8),inactive: -0.016,inactive: -0.003,inactive: -0.014,inactive: 0.005,inactive: 0.04,inactive: 0,inactive: 0.076,inactive: 0.014,inactive: -0.059,inactive: 0.002
EIF2B3 (UniProt Q9NR50),inactive: 0.021,inactive: -0.026,inactive: -0.043,inactive: -0.058,inactive: -0.012,inactive: -0.022,inactive: -0.116,inactive: -0.027,inactive: -0.021,inactive: -0.011
ELAC2 (UniProt Q9BQ52),inactive: 0.004,inactive: -0.009,inactive: 0.046,inactive: 0.017,inactive: -0.032,inactive: -0.041,inactive: 0.063,inactive: 0.038,inactive: -0.015,inactive: 0.014
EIF2B1 (UniProt Q14232),inactive: 0,inactive: 0.013,inactive: 0.026,inactive: 0.019,inactive: 0.012,inactive: -0.001,inactive: 0.001,inactive: 0.01,inactive: -0.013,inactive: 0.036
EEF1G isoform 2 (UniProt P26641),inactive: 0.033,inactive: 0.083,inactive: -0.034,inactive: -0.03,inactive: -0.032,inactive: 0.045,inactive: -0.03,inactive: -0.05,inactive: -0.124,inactive: 0.028
EMC6 (UniProt Q9BV81),inactive: 0.084,inactive: 0.177,inactive: -0.01,inactive: -0.001,inactive: -0.059,inactive: -0.033,inactive: 0.198,inactive: 0.063,inactive: -0.04,inactive: -0.024
ELP1 (UniProt O95163),inactive: -0.015,inactive: 0.065,inactive: 0.006,inactive: 0,inactive: -0.014,inactive: 0.006,inactive: 0.022,inactive: 0.014,inactive: -0.004,inactive: 0.023
EML4 (UniProt Q9HC35),inactive: 0.094,inactive: 0.056,inactive: -0.099,inactive: 0.03,inactive: -0.04,inactive: 0.021,inactive: -0.023,inactive: -0.014,inactive: -0.066,inactive: 0.015
EI24 (UniProt O14681),inactive: -0.102,inactive: 0.031,inactive: -0.118,inactive: -0.067,inactive: -0.039,inactive: 0.018,inactive: 0.08,inactive: 0.021,inactive: -0.031,inactive: 0.019
EIF3A (UniProt Q14152),inactive: 0.093,inactive: 0.055,inactive: -0.103,inactive: -0.049,inactive: -0.154,inactive: 0.071,inactive: -0.055,inactive: -0.054,inactive: -0.134,inactive: -0.051
EIF4A2 isoform 2 (UniProt Q14240),inactive: 0.028,inactive: -0.009,inactive: -0.053,inactive: -0.046,inactive: -0.104,inactive: -0.029,inactive: 0.017,inactive: 0.013,inactive: -0.021,inactive: -0.04
ELMOD2 (UniProt Q8IZ81),inactive: -0.056,inactive: 0.002,inactive: -0.03,inactive: -0.001,inactive: -0.062,inactive: 0.008,inactive: 0.021,inactive: -0.008,inactive: 0.015,inactive: 0.054
EIF4E2 (UniProt O60573),inactive: -0.055,,inactive: -0.094,inactive: -0.052,inactive: -0.232,inactive: -0.004,inactive: 0.082,inactive: -0.059,inactive: -0.127,inactive: 0.035
EOGT (UniProt Q5NDL2),inactive: -0.009,inactive: -0.025,inactive: -0.044,inactive: 0.055,inactive: -0.052,inactive: -0.005,inactive: -0.082,inactive: -0.038,inactive: 0.029,inactive: -0.021

# Record cards, from the list above. Values in the order: log2 fold change (bafetinib)	log2 fold change [1]	log2 fold change (nilotinib)	log2 fold change [2]	log2 fold change (dasatinib)	log2 fold change [3]	log2 fold change [4]	log2 fold change [5]	log2 fold change (tipifarnib)	log2 fold change (mubritinib)
# ENY2 (UniProt Q9NPA8) reads inactive: -0.016	inactive: -0.003	inactive: -0.014	inactive: 0.005	inactive: 0.04	inactive: 0	inactive: 0.076	inactive: 0.014	inactive: -0.059	inactive: 0.002
# EMC6 (UniProt Q9BV81) reads inactive: 0.084	inactive: 0.177	inactive: -0.01	inactive: -0.001	inactive: -0.059	inactive: -0.033	inactive: 0.198	inactive: 0.063	inactive: -0.04	inactive: -0.024

# Next results

Target,log2 fold change (bafetinib),log2 fold change [1],log2 fold change (nilotinib),log2 fold change [2],log2 fold change (dasatinib),log2 fold change [3],log2 fold change [4],log2 fold change [5],log2 fold change (tipifarnib),log2 fold change (mubritinib)
EIF3G (UniProt K7ER90),inactive: -0.007,,inactive: 0.082,inactive: -0.166,inactive: -0.068,inactive: 0.141,inactive: -0.057,,,inactive: -0.13
"EPB41, A0A2R8Y6D0",inactive: -0.128,inactive: -0.096,inactive: 0.168,inactive: 0.05,,inactive: -0.114,inactive: -0.023,inactive: 0.082,inactive: 0.178,inactive: 0.03
ELAVL4 (UniProt P26378),inactive: 0.084,inactive: -0.053,inactive: 0,inactive: -0.026,,inactive: 0.147,inactive: -0.087,inactive: -0.286,,
EIF2AK3 (UniProt Q9NZJ5),inactive: 0.082,inactive: 0.535,inactive: -0.201,inactive: -0.072,inactive: -0.017,inactive: -0.067,active: 0.845,,inactive: -0.057,inactive: 0.019
EIF2AK2 (UniProt P19525),inactive: 0.377,inactive: -0.135,,,inactive: -0.031,,inactive: -0.355,inactive: -0.241,,inactive: -0.258
EIF3C (UniProt Q99613),inactive: 0.066,inactive: 0.116,inactive: -0.123,inactive: -0.082,inactive: -0.116,inactive: 0.051,inactive: -0.032,inactive: -0.104,inactive: -0.1,inactive: -0.077
EIF2AK4 (UniProt Q9P2K8),inactive: 0.055,inactive: 0.023,inactive: -0.045,inactive: -0.113,inactive: -0.233,inactive: 0.004,inactive: -0.262,inactive: -0.029,inactive: -0.046,inactive: 0.087
ELOVL1 (UniProt Q9BW60),inactive: -0.245,inactive: 0.12,inactive: -0.126,inactive: 0.024,inactive: -0.041,inactive: -0.011,inactive: 0.139,inactive: -0.097,inactive: -0.093,inactive: 0.011
EIF2AK1 (UniProt Q9BQI3),inactive: -0.162,inactive: 0.171,,,inactive: -0.068,,inactive: 0.19,inactive: 0,inactive: -0.035,inactive: -0.025
EIF6 (UniProt P56537),inactive: -0.058,inactive: -0.053,inactive: -0.077,inactive: 0.035,inactive: 0.038,inactive: -0.05,inactive: -0.072,inactive: 0.025,inactive: 0.061,inactive: 0.026
EIF2B4 (UniProt Q9UI10),inactive: 0.183,inactive: 0.083,,,inactive: 0.194,,inactive: -0.05,,inactive: 0.007,inactive: 0.175
EMP3 (UniProt P54852),inactive: 0.08,,inactive: 0.064,inactive: 0.076,inactive: 0.048,inactive: 0.021,inactive: 0.026,inactive: -0.057,inactive: -0.091,inactive: -0.056
EIF3K (UniProt Q9UBQ5),inactive: 0.005,inactive: -0.004,inactive: -0.037,inactive: -0.009,inactive: -0.026,inactive: -0.034,inactive: 0.075,inactive: 0.03,inactive: -0.032,inactive: 0
EML2 isoform 3 (UniProt O95834),inactive: -0.021,inactive: -0.003,inactive: 0.006,inactive: -0.018,inactive: -0.097,inactive: -0.061,inactive: 0.051,inactive: -0.045,inactive: -0.037,inactive: 0.039
EGR1 (UniProt P18146),inactive: -0.257,inactive: 0.141,inactive: -0.001,inactive: -0.352,,inactive: -0.295,inactive: -0.24,inactive: -0.106,inactive: 0.139,inactive: -0.121
